Measurements reported in the supplement of paper PMC7661543.
Differences between knockout arms are mostly noise.

Test system: SKBR3
Assay: relative cell number vs DMSO control (72 h) (% of DMSO); higher = less growth inhibition (more cells)
Method: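 QMAP-Seq: a pool of 5 breast cancer cell lines (ZR-75-1, SKBR3, HCC-38, MDA-MB-231, BT-20), each carrying 12 doxycycline-inducible Cas9 sgRNA perturbations (11 knockouts plus non-targeting sgNT), was treated with compounds for 72 h at four 10-fold doses (10 nM-10 uM or 1 nM-1 uM range). Barcodes were amplified and sequenced, and cell number was interpolated from 293T spike-in standard curves. The result is expressed as % of the median of DMSO wells. Two biological replicates.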

Nc1ccn([C@@H]2O[C@H](CO)[C@@H](O)C2(F)F)c(=O)n1 [Gemcitabine]
Details	relative cell number
sgRNA knockout: sgATF3, 10 nM	24.5
sgRNA knockout: sgATF3, 100 nM	16.7
sgRNA knockout: sgATF3, 1000 nM	9.23
sgRNA knockout: sgATF3, 10000 nM	10.5
sgRNA knockout: sgATF4, 10 nM	29.9
sgRNA knockout: sgATF4, 100 nM	12
sgRNA knockout: sgATF4, 1000 nM	17.7
sgRNA knockout: sgATF4, 10000 nM	16.2
sgRNA knockout: sgATF6, 10 nM	23.9
sgRNA knockout: sgATF6, 100 nM	13.2
sgRNA knockout: sgATF6, 1000 nM	14.69
sgRNA knockout: sgATF6, 10000 nM	9.76
sgRNA knockout: sgATG7, 10 nM	25.3
sgRNA knockout: sgATG7, 100 nM	13.4
sgRNA knockout: sgATG7, 1000 nM	8.28
sgRNA knockout: sgATG7, 10000 nM	13.7
sgRNA knockout: sgERN1, 10 nM	31.9
sgRNA knockout: sgERN1, 100 nM	24.5
sgRNA knockout: sgERN1, 1000 nM	17.4
sgRNA knockout: sgERN1, 10000 nM	14.3
sgRNA knockout: sgHSF1, 10 nM	24.8
sgRNA knockout: sgHSF1, 100 nM	13.2
sgRNA knockout: sgHSF1, 1000 nM	10.9
sgRNA knockout: sgHSF1, 10000 nM	13.5
sgRNA knockout: sgHSF2, 10 nM	31.9
sgRNA knockout: sgHSF2, 100 nM	14
sgRNA knockout: sgHSF2, 1000 nM	22.3
sgRNA knockout: sgHSF2, 10000 nM	12.6
sgRNA knockout: sgKEAP1, 10 nM	21.4
sgRNA knockout: sgKEAP1, 100 nM	12.8
sgRNA knockout: sgKEAP1, 1000 nM	12.7
sgRNA knockout: sgKEAP1, 10000 nM	8.67
sgRNA knockout: sgNFE2L2, 10 nM	25.2
sgRNA knockout: sgNFE2L2, 100 nM	9.5
sgRNA knockout: sgNFE2L2, 1000 nM	13.2
sgRNA knockout: sgNFE2L2, 10000 nM	10.6
sgRNA knockout: sgSLC35F2, 10 nM	21.3
sgRNA knockout: sgSLC35F2, 100 nM	10.41
sgRNA knockout: sgSLC35F2, 1000 nM	15.1
sgRNA knockout: sgSLC35F2, 10000 nM	22.6
sgRNA knockout: sgXBP1, 10 nM	32.6
sgRNA knockout: sgXBP1, 100 nM	9.26
sgRNA knockout: sgXBP1, 1000 nM	13.3
sgRNA knockout: sgXBP1, 10000 nM	16.2

Cc1cc2c(C(C)C)c(O)c(O)c(C=O)c2c(O)c1-c1c(C)cc2c(C(C)C)c(O)c(O)c(C=O)c2c1O [Gossypol]
Details	relative cell number
sgRNA knockout: sgATF3, 10 nM	108
sgRNA knockout: sgATF3, 100 nM	96.1
sgRNA knockout: sgATF3, 1000 nM	129
sgRNA knockout: sgATF3, 10000 nM	33.2
sgRNA knockout: sgATF4, 10 nM	93.4
sgRNA knockout: sgATF4, 100 nM	101
sgRNA knockout: sgATF4, 1000 nM	98.9
sgRNA knockout: sgATF4, 10000 nM	24.9
sgRNA knockout: sgATF6, 10 nM	103
sgRNA knockout: sgATF6, 100 nM	89.8
sgRNA knockout: sgATF6, 1000 nM	104
sgRNA knockout: sgATF6, 10000 nM	27.3
sgRNA knockout: sgATG7, 10 nM	99.4
sgRNA knockout: sgATG7, 100 nM	105
sgRNA knockout: sgATG7, 1000 nM	86.9
sgRNA knockout: sgATG7, 10000 nM	28.8
sgRNA knockout: sgERN1, 10 nM	118
sgRNA knockout: sgERN1, 100 nM	98
sgRNA knockout: sgERN1, 1000 nM	118
sgRNA knockout: sgERN1, 10000 nM	30.8
sgRNA knockout: sgHSF1, 10 nM	103
sgRNA knockout: sgHSF1, 100 nM	86.3
sgRNA knockout: sgHSF1, 1000 nM	101.2
sgRNA knockout: sgHSF1, 10000 nM	32.9
sgRNA knockout: sgHSF2, 10 nM	84.6
sgRNA knockout: sgHSF2, 100 nM	91.6
sgRNA knockout: sgHSF2, 1000 nM	107
sgRNA knockout: sgHSF2, 10000 nM	29
sgRNA knockout: sgKEAP1, 10 nM	99.2
sgRNA knockout: sgKEAP1, 100 nM	104
sgRNA knockout: sgKEAP1, 1000 nM	121
sgRNA knockout: sgKEAP1, 10000 nM	36.9
sgRNA knockout: sgNFE2L2, 10 nM	104
sgRNA knockout: sgNFE2L2, 100 nM	82.9
sgRNA knockout: sgNFE2L2, 1000 nM	105.2
sgRNA knockout: sgNFE2L2, 10000 nM	22.7
sgRNA knockout: sgSLC35F2, 10 nM	106
sgRNA knockout: sgSLC35F2, 100 nM	107
sgRNA knockout: sgSLC35F2, 1000 nM	88.2
sgRNA knockout: sgSLC35F2, 10000 nM	25.3
sgRNA knockout: sgXBP1, 10 nM	87.5
sgRNA knockout: sgXBP1, 100 nM	98.8
sgRNA knockout: sgXBP1, 1000 nM	103
sgRNA knockout: sgXBP1, 10000 nM	30.6

COc1cc2c(cc1-c1c(C)noc1C)ncc1[nH]c(=O)n([C@H](C)c3ccccn3)c12 [IBET151]
Details	relative cell number
sgRNA knockout: sgATF3, 10 nM	106
sgRNA knockout: sgATF3, 100 nM	121
sgRNA knockout: sgATF3, 1000 nM	59.3
sgRNA knockout: sgATF3, 10000 nM	33.9
sgRNA knockout: sgATF4, 10 nM	94.9
sgRNA knockout: sgATF4, 100 nM	84.1
sgRNA knockout: sgATF4, 1000 nM	54
sgRNA knockout: sgATF4, 10000 nM	37.3
sgRNA knockout: sgATF6, 10 nM	85.6
sgRNA knockout: sgATF6, 100 nM	95.11
sgRNA knockout: sgATF6, 1000 nM	55.8
sgRNA knockout: sgATF6, 10000 nM	42.8
sgRNA knockout: sgATG7, 10 nM	65
sgRNA knockout: sgATG7, 100 nM	98.3
sgRNA knockout: sgATG7, 1000 nM	57.6
sgRNA knockout: sgATG7, 10000 nM	47.5
sgRNA knockout: sgERN1, 10 nM	101
sgRNA knockout: sgERN1, 100 nM	66.1
sgRNA knockout: sgERN1, 1000 nM	50
sgRNA knockout: sgERN1, 10000 nM	43.7
sgRNA knockout: sgHSF1, 10 nM	73
sgRNA knockout: sgHSF1, 100 nM	70
sgRNA knockout: sgHSF1, 1000 nM	51
sgRNA knockout: sgHSF1, 10000 nM	40.1
sgRNA knockout: sgHSF2, 10 nM	97.7
sgRNA knockout: sgHSF2, 100 nM	78.1
sgRNA knockout: sgHSF2, 1000 nM	41.1
sgRNA knockout: sgHSF2, 10000 nM	34.5
sgRNA knockout: sgKEAP1, 10 nM	76.2
sgRNA knockout: sgKEAP1, 100 nM	79.8
sgRNA knockout: sgKEAP1, 1000 nM	52.6
sgRNA knockout: sgKEAP1, 10000 nM	42.9
sgRNA knockout: sgNFE2L2, 10 nM	106
sgRNA knockout: sgNFE2L2, 100 nM	61.4
sgRNA knockout: sgNFE2L2, 1000 nM	51.1
sgRNA knockout: sgNFE2L2, 10000 nM	45.4
sgRNA knockout: sgSLC35F2, 10 nM	86.9
sgRNA knockout: sgSLC35F2, 100 nM	94.6
sgRNA knockout: sgSLC35F2, 1000 nM	51.9
sgRNA knockout: sgSLC35F2, 10000 nM	38.9
sgRNA knockout: sgXBP1, 10 nM	79.8
sgRNA knockout: sgXBP1, 100 nM	93.4
sgRNA knockout: sgXBP1, 1000 nM	59.8
sgRNA knockout: sgXBP1, 10000 nM	31.6
